From patent US10351598B2 (CAREGEN CO., LTD., priority 2016, dated 2019)

Test: general procedure: peptide synthesis; CTL resin
Details: whole synthesis

## Lys-Glu-Arg-Lys-Ser (KERKS)
  crude mass: 0.77 g
Scale of the general procedure 700 mg of resin
  crude yield: 89.2%
